Among the data in article PMC10632368 are binding values, retold here.

Chains of the proteins cited; added tags and fusions are not shown. Residues count along the entry.
UniProt Q5TEJ8: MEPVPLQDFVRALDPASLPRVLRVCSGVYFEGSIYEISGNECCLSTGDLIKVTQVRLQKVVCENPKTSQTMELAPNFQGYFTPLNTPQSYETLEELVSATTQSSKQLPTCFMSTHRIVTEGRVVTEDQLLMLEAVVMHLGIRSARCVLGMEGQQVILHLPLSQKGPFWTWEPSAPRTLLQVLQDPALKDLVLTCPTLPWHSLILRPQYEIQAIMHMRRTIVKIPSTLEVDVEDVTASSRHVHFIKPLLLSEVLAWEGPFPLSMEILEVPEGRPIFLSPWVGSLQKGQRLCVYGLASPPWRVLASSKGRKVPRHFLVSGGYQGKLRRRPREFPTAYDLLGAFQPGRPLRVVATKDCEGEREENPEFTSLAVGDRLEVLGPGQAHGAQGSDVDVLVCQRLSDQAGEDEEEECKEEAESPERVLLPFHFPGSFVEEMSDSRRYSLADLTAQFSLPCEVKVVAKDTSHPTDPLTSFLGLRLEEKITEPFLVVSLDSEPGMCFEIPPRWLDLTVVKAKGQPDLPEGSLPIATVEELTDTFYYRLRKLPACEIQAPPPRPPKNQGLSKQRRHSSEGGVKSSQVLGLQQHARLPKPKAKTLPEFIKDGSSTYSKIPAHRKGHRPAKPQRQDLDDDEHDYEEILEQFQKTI
UniProt O43914, residues 22-113: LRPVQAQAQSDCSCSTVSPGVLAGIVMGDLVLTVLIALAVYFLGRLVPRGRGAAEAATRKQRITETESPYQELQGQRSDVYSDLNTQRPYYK
UniProt P43403: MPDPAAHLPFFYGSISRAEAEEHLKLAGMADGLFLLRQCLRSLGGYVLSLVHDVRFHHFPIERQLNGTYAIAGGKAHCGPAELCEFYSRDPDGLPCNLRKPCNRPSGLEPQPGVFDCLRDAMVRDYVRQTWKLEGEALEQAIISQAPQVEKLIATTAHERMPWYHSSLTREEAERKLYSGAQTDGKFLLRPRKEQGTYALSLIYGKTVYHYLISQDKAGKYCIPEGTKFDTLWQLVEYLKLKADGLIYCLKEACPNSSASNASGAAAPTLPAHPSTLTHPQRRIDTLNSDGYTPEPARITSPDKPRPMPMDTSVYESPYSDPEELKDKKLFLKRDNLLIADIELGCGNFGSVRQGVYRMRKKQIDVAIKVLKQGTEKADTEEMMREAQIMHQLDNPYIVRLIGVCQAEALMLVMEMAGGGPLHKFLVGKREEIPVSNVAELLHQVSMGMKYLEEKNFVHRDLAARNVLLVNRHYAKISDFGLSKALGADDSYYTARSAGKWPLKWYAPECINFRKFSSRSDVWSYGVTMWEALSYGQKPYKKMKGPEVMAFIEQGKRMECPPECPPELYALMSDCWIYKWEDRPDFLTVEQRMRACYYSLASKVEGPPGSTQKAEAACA

Assay [1] deals with FLAG-tagged THEMIS2 (human) (UniProt Q5TEJ8). As to the kind of experiment: co-IP; NKL-Ly49H cells expressing THEMIS2-FLAG stimulated with anti-Ly49H mAb for 2 or 5 min; cytosolic proteins without DTSSP; anti-FLAG M2 affinity gel; immunoblot with anti-DAP12 or anti-ZAP70.
The target is the same in assay [2]. As to the kind of experiment: cross-linking + co-IP; NKL-Ly49H cells expressing THEMIS2-FLAG stimulated with anti-Ly49H mAb for 2 or 5 min; cytosolic proteins treated with DTSSP; anti-FLAG M2 affinity gel, eluted with 3x FLAG peptides; immunoblot with anti-DAP12 or anti-ZAP70. A general note: In western blotting, separated proteins are transferred to a membrane and probed.

Results are given in words; binding and its absence hold for the method and conditions named. Binding seen in cells or lysates may run through a third protein. Some binding calls cover weakened binding; strength is not graded here.

DAP12 (from UniProt O43914 22-113): the binding result in assay [1] is “no binding (condition: without DTSSP cross-linking)”; in assay [2], “binds weakly”.
For ZAP70 (from UniProt P43403 1-619), in that order: “no binding (condition: without DTSSP cross-linking)” and “binds weakly”.
